{"source": "patent US20020010154A1", "about": "“Compositions comprising cyclodextrin” (priority 2000, published 2002)", "test": "Complexation constant with cyclodextrin, spectral displacement method with phenolphthalein", "format": "physicochemical", "details": "no unit in table, complexation constants in M^−1", "description": "A spectral displacement method with phenolphthalein is used to determine the complexation constant between cyclodextrin and a given material, especially for surfactants. This method of determining complexation constants with cyclodextrins is described in detail in the following references, which are hereby incorporated herein by reference: Sasaki, K. J., Christian, S. D., and Tucker, E. E., “Study of the Stability of 1:1 Complexes Between Aliphatic Alcohols and b-Cyclodextrins in Aqueous Solution,” Fluid Phase Equilibria, Vol. 49, (Amsterdam, Elsevier Science Publishers, 1989), pp. 281-89. Further information regarding spectral displacement methods can be found in other references, e.g. in Wilson, L. D., Siddall, S. R., and Verrall R. E., “A Spectral Displacement Study of the Binding Constants of Cyclodextrin-Hydrocarbon and—Fluorocarbon Surfactant Inclusion Complexes,” Canadian Journal of Chemistry, Vol. 75, (NRC Canada 1997), pp. 927-933, which is incorporated by reference herein. […]\nThe complexation constant of a given material with cyclodextrin is obtained by an absorbance measurement in the visible region at 550 nm that is performed with a spectrophotometer at room temperature. […] Complexation constants of cyclodextrin-compatible and/or cyclodextrin-incompatible materials are determined with using the free, uncomplexed phenolphthalein concentration obtained by absorbance at 550 nm.", "note": "At least one structure is not confirmed: it was looked up by name or label, or the drawing left a doubt.", "data": [{"smiles": "CCCCCCCCCCCCCCCC[n+]1ccccc1", "note": "[Cetyl pyridinium chloride]", "values": [{"measurement": "Complexation Constant (K)", "result": "about 48000"}]}]}
